Values of other authors, collected in paper PMC11359394 (Pharmaceutics, 2024).

## CC(=O)O[C@H]1C(=O)[C@@]2(C)[C@H]([C@H](OC(=O)c3ccccc3)[C@]3(O)C[C@H](OC(=O)[C@H](O)[C@@H](NC(=O)c4ccccc4)c4ccccc4)C(C)=C1C3(C)C)[C@]1(OC(C)=O)CO[C@@H]1C[C@@H]2O [Paclitaxel]
  intrinsic solubility in water: 0.1 µg/mL
